Assay: general procedure: Fmoc solid-phase peptide synthesis
Settings: RP-HPLC, TFA salt, P33_V exchanged to acetate salt

Row | Sequence | final HPLC purity (oxidative folding step, one disulfide bridge) [%] | final HPLC purity (whole synthesis) [%]
1 | SMCHRWSRAVLFPAAHRP [P33_dimer] (dimer via cysteine; listed as Homo sapiens) | 95 | 
2 | SMCHRWSRAVLFPAAHRP [P33_mono] |  | 95

Source: patent publication US8349801B2 (priority 2006, dated 2013)
